Measurements published in paper doi:10.1101/2025.08.11.669663.
These are yes or no findings as the source states them, for the method shown. In cells and extracts the contact can be indirect. A yes stands for co-enrichment or nearness to the bait. Other partners may have been found.

By UniProt entry, the sequences of proteins in these tests, tags left out.
UniProt P00441: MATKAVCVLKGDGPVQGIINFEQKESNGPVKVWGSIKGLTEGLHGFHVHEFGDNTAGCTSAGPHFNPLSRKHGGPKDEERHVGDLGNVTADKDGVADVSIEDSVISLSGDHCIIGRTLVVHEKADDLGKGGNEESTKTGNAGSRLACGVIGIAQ
UniProt P39748: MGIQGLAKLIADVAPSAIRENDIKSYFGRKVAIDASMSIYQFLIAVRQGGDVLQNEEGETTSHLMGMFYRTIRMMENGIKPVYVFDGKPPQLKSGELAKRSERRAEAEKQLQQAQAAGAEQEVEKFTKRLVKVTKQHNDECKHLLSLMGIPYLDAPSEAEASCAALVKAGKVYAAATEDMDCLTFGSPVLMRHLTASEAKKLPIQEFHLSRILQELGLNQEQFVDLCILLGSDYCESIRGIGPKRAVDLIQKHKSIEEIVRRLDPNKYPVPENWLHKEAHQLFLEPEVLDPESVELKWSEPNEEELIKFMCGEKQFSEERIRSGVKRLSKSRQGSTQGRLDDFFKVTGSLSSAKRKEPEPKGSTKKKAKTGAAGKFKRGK
UniProt P04406: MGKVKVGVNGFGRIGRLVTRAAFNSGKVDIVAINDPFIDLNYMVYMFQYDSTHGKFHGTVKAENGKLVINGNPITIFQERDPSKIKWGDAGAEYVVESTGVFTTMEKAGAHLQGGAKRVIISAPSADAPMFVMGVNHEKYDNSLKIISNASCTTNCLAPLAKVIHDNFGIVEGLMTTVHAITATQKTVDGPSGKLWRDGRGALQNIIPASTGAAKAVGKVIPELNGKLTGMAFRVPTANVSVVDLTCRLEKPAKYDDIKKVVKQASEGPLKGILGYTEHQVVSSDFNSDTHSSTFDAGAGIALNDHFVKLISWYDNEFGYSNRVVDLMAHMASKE
UniProt P49736: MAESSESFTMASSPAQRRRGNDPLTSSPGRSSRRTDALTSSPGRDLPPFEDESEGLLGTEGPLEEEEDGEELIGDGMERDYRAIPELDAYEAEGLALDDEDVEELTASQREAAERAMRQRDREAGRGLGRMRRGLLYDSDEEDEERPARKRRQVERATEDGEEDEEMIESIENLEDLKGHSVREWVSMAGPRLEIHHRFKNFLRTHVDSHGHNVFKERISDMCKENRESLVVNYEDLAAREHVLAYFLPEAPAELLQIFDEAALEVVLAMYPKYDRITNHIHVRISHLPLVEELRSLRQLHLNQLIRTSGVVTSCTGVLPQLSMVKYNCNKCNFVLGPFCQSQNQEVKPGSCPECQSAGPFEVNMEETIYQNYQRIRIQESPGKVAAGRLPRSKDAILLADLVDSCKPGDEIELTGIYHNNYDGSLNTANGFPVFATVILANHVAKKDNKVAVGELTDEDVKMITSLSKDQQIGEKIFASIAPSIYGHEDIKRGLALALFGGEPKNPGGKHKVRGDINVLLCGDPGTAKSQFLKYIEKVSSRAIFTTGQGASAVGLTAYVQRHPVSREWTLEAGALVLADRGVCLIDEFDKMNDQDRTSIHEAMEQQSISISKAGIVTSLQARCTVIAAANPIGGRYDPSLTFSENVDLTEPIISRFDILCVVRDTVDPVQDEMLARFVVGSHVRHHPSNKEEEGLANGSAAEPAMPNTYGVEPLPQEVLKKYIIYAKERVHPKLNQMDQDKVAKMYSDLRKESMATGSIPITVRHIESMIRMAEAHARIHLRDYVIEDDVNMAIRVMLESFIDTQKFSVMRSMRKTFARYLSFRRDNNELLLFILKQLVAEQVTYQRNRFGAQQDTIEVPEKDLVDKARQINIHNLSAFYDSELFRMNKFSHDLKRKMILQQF
UniProt P52701: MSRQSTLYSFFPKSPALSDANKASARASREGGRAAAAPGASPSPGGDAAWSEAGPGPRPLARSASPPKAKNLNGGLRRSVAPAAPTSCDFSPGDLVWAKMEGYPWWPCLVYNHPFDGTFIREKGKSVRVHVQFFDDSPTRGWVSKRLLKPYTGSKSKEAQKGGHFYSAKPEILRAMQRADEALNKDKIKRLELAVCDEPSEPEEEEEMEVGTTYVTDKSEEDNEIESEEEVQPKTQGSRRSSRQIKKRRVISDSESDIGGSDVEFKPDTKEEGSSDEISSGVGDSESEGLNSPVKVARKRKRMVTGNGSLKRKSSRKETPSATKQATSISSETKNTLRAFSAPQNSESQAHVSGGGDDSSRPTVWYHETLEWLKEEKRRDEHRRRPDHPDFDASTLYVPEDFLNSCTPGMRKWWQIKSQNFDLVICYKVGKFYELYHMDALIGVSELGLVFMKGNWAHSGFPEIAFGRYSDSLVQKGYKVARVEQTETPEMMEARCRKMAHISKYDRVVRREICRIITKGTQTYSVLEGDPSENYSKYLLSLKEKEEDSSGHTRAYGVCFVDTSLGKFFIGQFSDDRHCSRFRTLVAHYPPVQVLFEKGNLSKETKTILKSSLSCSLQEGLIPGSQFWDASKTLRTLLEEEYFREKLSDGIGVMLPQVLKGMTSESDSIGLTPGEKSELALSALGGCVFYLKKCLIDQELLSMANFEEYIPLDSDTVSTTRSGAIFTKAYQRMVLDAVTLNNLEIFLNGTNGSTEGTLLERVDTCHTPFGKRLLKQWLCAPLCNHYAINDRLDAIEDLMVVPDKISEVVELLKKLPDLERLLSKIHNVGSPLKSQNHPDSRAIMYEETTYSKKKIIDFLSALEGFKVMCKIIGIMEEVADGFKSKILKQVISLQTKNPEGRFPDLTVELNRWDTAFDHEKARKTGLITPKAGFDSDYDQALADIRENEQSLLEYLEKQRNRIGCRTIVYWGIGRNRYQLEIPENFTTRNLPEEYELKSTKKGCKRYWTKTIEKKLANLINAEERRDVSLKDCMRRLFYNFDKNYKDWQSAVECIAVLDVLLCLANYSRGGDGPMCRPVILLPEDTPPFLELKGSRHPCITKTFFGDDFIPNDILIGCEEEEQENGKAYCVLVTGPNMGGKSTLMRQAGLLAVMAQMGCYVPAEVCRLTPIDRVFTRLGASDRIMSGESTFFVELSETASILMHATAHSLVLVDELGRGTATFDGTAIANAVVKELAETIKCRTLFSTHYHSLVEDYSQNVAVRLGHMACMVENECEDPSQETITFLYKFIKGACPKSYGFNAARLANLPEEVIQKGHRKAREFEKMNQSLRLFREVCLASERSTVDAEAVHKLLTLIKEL
UniProt P28340: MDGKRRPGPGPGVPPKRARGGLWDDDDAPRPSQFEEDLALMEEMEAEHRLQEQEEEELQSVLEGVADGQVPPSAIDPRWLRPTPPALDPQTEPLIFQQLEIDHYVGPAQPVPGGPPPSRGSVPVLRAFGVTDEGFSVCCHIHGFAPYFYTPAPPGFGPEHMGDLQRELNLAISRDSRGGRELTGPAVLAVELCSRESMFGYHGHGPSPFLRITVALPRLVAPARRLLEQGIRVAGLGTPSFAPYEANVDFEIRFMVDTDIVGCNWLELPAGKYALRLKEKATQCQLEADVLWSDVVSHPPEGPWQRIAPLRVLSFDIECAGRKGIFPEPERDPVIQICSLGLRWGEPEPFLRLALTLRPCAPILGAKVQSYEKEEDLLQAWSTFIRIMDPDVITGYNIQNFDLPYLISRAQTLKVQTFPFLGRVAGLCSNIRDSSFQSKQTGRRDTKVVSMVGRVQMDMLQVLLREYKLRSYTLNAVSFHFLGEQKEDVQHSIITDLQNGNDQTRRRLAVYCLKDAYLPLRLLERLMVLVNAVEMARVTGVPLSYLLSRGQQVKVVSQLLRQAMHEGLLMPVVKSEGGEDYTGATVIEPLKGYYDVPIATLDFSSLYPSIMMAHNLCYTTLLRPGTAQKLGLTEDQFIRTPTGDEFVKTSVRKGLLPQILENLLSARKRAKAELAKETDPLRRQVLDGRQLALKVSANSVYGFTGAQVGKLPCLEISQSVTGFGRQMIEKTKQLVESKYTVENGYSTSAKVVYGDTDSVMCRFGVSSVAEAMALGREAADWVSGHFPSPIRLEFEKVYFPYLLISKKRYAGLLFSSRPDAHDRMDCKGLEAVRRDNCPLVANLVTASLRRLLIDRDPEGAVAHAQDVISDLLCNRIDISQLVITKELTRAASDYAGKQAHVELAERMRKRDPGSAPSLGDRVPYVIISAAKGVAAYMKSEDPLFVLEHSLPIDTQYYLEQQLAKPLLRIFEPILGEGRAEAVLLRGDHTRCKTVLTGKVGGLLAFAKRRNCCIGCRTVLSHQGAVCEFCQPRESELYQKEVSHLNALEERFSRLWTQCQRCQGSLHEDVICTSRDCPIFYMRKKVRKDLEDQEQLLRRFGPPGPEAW
UniProt P12004: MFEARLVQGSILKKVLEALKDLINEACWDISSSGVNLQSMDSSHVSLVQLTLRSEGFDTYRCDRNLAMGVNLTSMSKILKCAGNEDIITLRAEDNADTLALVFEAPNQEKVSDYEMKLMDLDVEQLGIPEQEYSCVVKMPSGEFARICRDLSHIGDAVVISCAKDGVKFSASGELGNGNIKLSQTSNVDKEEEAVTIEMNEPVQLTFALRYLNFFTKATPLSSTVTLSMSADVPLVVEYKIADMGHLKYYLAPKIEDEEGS

Assays:
Experiment in all cases: affinity purification with mass spectrometry
[1] = target: Cu/Zn superoxide dismutase (SOD1) (human (endogenous in HeLa)) (UniProt P00441)
[2] = target: T1, catalase (CAT) (human (endogenous in HeLa)) (UniProt P04040)
T1 sequence: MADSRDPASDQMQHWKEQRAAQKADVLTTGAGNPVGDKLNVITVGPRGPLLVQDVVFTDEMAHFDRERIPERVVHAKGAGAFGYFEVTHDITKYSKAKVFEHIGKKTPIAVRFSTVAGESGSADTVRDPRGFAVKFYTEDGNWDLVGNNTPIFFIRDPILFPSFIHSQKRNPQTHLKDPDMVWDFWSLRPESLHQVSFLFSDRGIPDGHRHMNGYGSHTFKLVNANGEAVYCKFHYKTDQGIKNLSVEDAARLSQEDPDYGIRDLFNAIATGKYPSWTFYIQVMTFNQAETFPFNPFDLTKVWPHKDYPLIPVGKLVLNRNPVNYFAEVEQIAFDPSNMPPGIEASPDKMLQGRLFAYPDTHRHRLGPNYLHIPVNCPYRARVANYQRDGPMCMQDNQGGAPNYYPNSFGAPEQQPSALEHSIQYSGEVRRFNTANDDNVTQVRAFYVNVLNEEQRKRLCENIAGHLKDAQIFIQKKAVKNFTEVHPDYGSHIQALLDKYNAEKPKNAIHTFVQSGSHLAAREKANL

[3] = target: T2, peroxiredoxin 2 (PRDX2) (human (endogenous in HeLa)) (UniProt P32119)
T2 sequence: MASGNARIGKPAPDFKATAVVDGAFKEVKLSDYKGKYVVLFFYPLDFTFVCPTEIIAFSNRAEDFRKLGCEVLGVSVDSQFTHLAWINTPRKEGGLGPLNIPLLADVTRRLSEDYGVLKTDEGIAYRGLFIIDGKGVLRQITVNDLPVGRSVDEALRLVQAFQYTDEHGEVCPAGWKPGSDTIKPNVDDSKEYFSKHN

Row | binding [1] | binding [2] | binding [3] | Substance
1 | binds | binds | – | FEN1 (from UniProt P39748 1-380)
2 | binds | – | – | glyceraldehyde-3-phosphate dehydrogenase (GAPDH) (from UniProt P04406 1-335)
3 | binds | binds | binds | MCM2 (from UniProt P49736 1-904)
4 | binds | binds | binds | MSH6 (from UniProt P52701 1-1360)
5 | binds | binds | binds | POLD1 (a DNA polymerase subunit) (from UniProt P28340 1-1107)
6 | binds | binds | – | PCNA (from UniProt P12004 1-261)
